Measurements reported in PubChem BioAssay AID1224830 (NIAID, 2016).

- Screen: 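Genes whose knock-down alters the TNF-alpha reporter response to LPS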 (primary screen)
- Cells: human THP-1 monocytic leukaemia cells, TNF dual-luciferase reporter clone, PMA-differentiated to macrophage-like cells
- Reagent: siRNA pool against human genes, 50 nM
- Time to read-out: LPS for 4 h, given about 3 days after siRNA transfection
- Conditions: bacterial LPS (TLR4 ligand), 10 ng/ml
- Read-out: 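Ratio of firefly to renilla light, scaled to the plate median and expressed as a robust z-score per replicate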
- Direction: TNF reporter robust z-score: higher = stronger TNF reporter response to LPS
- Rule for the call: 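Each well counts as active if its z-score is over 2.8 or under -1.5; controls are left without a call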
The whole screen tested about 18,000 reagents; this is a part drawn at random. About 2,900 of all reagents (16%) count as active. 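Calls are made per well; low scores hint the gene aids the LPS response, high scores that it dampens it.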 Repeated entries: four replicate wells of each siRNA pool. Reagent sequences are not shown.

| Gene | PubChem SID | TNF reporter robust z-score | activity call |
| --- | --- | --- | --- |
| DPEP3 | SID315458861 | -0.74 | inactive |
| DPEP3 | SID315458861 | -0.43 | inactive |
| DPEP3 | SID315458861 | 0.09 | inactive |
| DPEP3 | SID315458861 | 0 | inactive |
| KLHL6 | SID315460748 | -0.95 | inactive |
| KLHL6 | SID315460748 | 0.03 | inactive |
| KLHL6 | SID315460748 | 0.08 | inactive |
| KLHL6 | SID315460748 | 0.45 | inactive |
| BHLHA15 | SID315462872 | -0.65 | inactive |
| BHLHA15 | SID315462872 | 0.41 | inactive |
| BHLHA15 | SID315462872 | 0.29 | inactive |
| BHLHA15 | SID315462872 | 0.82 | inactive |
| DCTN5 | SID315460386 | 0.49 | inactive |
| DCTN5 | SID315460386 | -0.26 | inactive |
| DCTN5 | SID315460386 | 1.83 | inactive |
| DCTN5 | SID315460386 | 2.47 | inactive |
| GARIN5A | SID315461150 | 0.58 | inactive |
| GARIN5A | SID315461150 | 0.68 | inactive |
| GARIN5A | SID315461150 | 0.73 | inactive |
| GARIN5A | SID315461150 | 0.08 | inactive |
| GAS1 | SID315448839 | -1.18 | inactive |
| GAS1 | SID315448839 | -0.14 | inactive |
| GAS1 | SID315448839 | -0.63 | inactive |
| GAS1 | SID315448839 | -0.45 | inactive |
| ZNF780A | SID315463759 | 2.18 | inactive |
| ZNF780A | SID315463759 | 0.2 | inactive |
| ZNF780A | SID315463759 | 0.76 | inactive |
| ZNF780A | SID315463759 | -0.47 | inactive |
| ASTN1 | SID315447436 | 0.52 | inactive |
| ASTN1 | SID315447436 | 2.63 | inactive |
| ASTN1 | SID315447436 | 1.91 | inactive |
| ASTN1 | SID315447436 | 1.41 | inactive |
| RAB9B | SID315456558 | 1.41 | inactive |
| RAB9B | SID315456558 | 1.28 | inactive |
| RAB9B | SID315456558 | 1.17 | inactive |
| RAB9B | SID315456558 | 1.99 | inactive |
| UACA | SID315457387 | 4.6 | active |
| UACA | SID315457387 | 3.99 | active |
| UACA | SID315457387 | 3.72 | active |
| UACA | SID315457387 | 5.34 | active |
| C4BPB | SID315447617 | -1.27 | inactive |
| C4BPB | SID315447617 | -0.55 | inactive |
| C4BPB | SID315447617 | -0.04 | inactive |
| C4BPB | SID315447617 | -1.17 | inactive |
| KIF13A | SID315458790 | -0.93 | inactive |
| KIF13A | SID315458790 | -0.81 | inactive |
| KIF13A | SID315458790 | -1.06 | inactive |
| KIF13A | SID315458790 | 0.43 | inactive |
| ZNF544 | SID315456019 | -0.61 | inactive |
| ZNF544 | SID315456019 | 0.24 | inactive |
| ZNF544 | SID315456019 | -0.45 | inactive |
| ZNF544 | SID315456019 | -0.41 | inactive |
| PLCXD2 | SID315463547 | 2.39 | inactive |
| PLCXD2 | SID315463547 | 2.81 | active |
| PLCXD2 | SID315463547 | 3.67 | active |
| PLCXD2 | SID315463547 | 4.31 | active |
| SLC39A6 | SID315455470 | -0.67 | inactive |
| SLC39A6 | SID315455470 | -1.34 | inactive |
| SLC39A6 | SID315455470 | -1.58 | active |
| SLC39A6 | SID315455470 | -1.46 | inactive |
| FGB | SID315448670 | -0.51 | inactive |
| FGB | SID315448670 | 0.07 | inactive |
| FGB | SID315448670 | -0.24 | inactive |
| FGB | SID315448670 | -0.73 | inactive |
| NUP160 | SID315455130 | -0.34 | inactive |
| NUP160 | SID315455130 | 1.22 | inactive |
| NUP160 | SID315455130 | 0.35 | inactive |
| NUP160 | SID315455130 | 0.95 | inactive |
| RHEB | SID315451129 | -0.44 | inactive |
| RHEB | SID315451129 | -0.7 | inactive |
| RHEB | SID315451129 | 0.2 | inactive |
| RHEB | SID315451129 | 0.7 | inactive |
| TMEM89 | SID315464925 | -0.9 | inactive |
| TMEM89 | SID315464925 | -0.52 | inactive |
| TMEM89 | SID315464925 | -0.45 | inactive |
| TMEM89 | SID315464925 | 0.17 | inactive |
| EML3 | SID315463522 | 1.04 | inactive |
| EML3 | SID315463522 | 0.34 | inactive |
| EML3 | SID315463522 | -0.56 | inactive |
| EML3 | SID315463522 | -0.55 | inactive |
| ZNF304 | SID315458358 | 0.48 | inactive |
| ZNF304 | SID315458358 | -0.44 | inactive |
| ZNF304 | SID315458358 | -0.91 | inactive |
| ZNF304 | SID315458358 | 0.05 | inactive |
| OR4A15 | SID315459858 | 0.69 | inactive |
| OR4A15 | SID315459858 | 0.8 | inactive |
| OR4A15 | SID315459858 | 1.29 | inactive |
| OR4A15 | SID315459858 | 2.16 | inactive |
| PSMD5 | SID315450911 | 0.89 | inactive |
| PSMD5 | SID315450911 | 2.44 | inactive |
| PSMD5 | SID315450911 | 1.22 | inactive |
| PSMD5 | SID315450911 | 1.15 | inactive |
| THBD | SID315451862 | 0 | inactive |
| THBD | SID315451862 | 0.87 | inactive |
| THBD | SID315451862 | 1.09 | inactive |
| THBD | SID315451862 | 1.14 | inactive |
| RPL8 | SID315451176 | -0.48 | inactive |
| RPL8 | SID315451176 | 1.41 | inactive |
| RPL8 | SID315451176 | 0.27 | inactive |
| RPL8 | SID315451176 | 1.28 | inactive |
| MRPL45 | SID315460320 | 0.91 | inactive |
| MRPL45 | SID315460320 | 2.39 | inactive |
| MRPL45 | SID315460320 | -0.42 | inactive |
| MRPL45 | SID315460320 | 1.33 | inactive |
| HAPSTR1 | SID315456111 | 0.23 | inactive |
| HAPSTR1 | SID315456111 | 2.81 | active |
| HAPSTR1 | SID315456111 | 0.27 | inactive |
| HAPSTR1 | SID315456111 | 3.3 | active |
| CYP4F12 | SID315459128 | -0.57 | inactive |
| CYP4F12 | SID315459128 | -0.1 | inactive |
| CYP4F12 | SID315459128 | -0.35 | inactive |
| CYP4F12 | SID315459128 | -0.21 | inactive |

Hits (from the list above):
| Gene | PubChem SID | TNF reporter robust z-score | activity call |
| --- | --- | --- | --- |
| UACA | SID315457387 | 4.6 | active |
| UACA | SID315457387 | 3.99 | active |
| UACA | SID315457387 | 3.72 | active |
| UACA | SID315457387 | 5.34 | active |
| PLCXD2 | SID315463547 | 2.81 | active |
| PLCXD2 | SID315463547 | 3.67 | active |
| PLCXD2 | SID315463547 | 4.31 | active |
| SLC39A6 | SID315455470 | -1.58 | active |
| HAPSTR1 | SID315456111 | 2.81 | active |
| HAPSTR1 | SID315456111 | 3.3 | active |
